Some entries share one result that the patent states for a list of compounds.
Molecular target: human β2-adrenergic receptor (β2AR) (Homo sapiens, UniProt P07550)
Test: β2AR stability, [3H]-dihydroalprenolol radioligand binding
Assay type: biochemical
Conditions: after three days of incubation at room temperature, CMC+0.2 wt %
Experimental: The activity of a receptor (β2AR) purified by DDM or MGAs (MGA-C12, MGA-C13 and MGA-C14) was measured by binding of [^3H]-dihydroalprenolol ([^3H]-DHA).
Specifically, the following method was used in a radioligand binding experiment. β2AR was purified by 0.1% DDM. The DDM-purified β2AR was diluted with a buffer solution containing each amphiphile (DDM or an MGA) such that the final concentration of the amphiphile was CMC+0.2 wt %. β2AR dissolved in each amphiphile was stored at room temperature for three days, and incubated at room temperature for 30 minutes using 10 nM-radioactive [^3H]-dihydroalprenolol (DHA) to measure ligand binding thereof at regular intervals. The mixture was loaded into a G-50 column, and passing liquid was collected using a binding buffer (20 mM HEPES pH 7.5, 100 mM NaCl supplemented with 0.5 mg/ml BSA) and 15 ml of a scintillation fluid was added thereto. Receptor-coupled [^3H]-DHA was measured by a scintillation counter (Beckman). Non-specific binding of [^3H]-DHA was measured by adding 1 μM of alprenolol (Sigma) in the same reaction. Binding of [^3H]-DHA was measured by column graphs.

## CCCCCCCCCCCCCCC(CO[C@@H]1OC(CO)[C@@H](O)C(O)C1O)(CO[C@@H]1OC(CO)[C@@H](O)C(O)C1O)Cc1cc(CC(CCCCCCCCCCCCCC)(CO[C@@H]2OC(CO)[C@@H](O)C(O)C2O)CO[C@@H]2OC(CO)[C@@H](O)C(O)C2O)cc(CC(CCCCCCCCCCCCCC)(CO[C@@H]2OC(CO)[C@@H](O)C(O)C2O)CO[C@@H]2OC(CO)[C@@H](O)C(O)C2O)c1 (some centres unmarked) [MGA-C14]
  β2AR receptor (ligand binding) activity retained: 50-60%

## CCCCCCCCCCCCCC(CO[C@@H]1OC(CO)[C@@H](O)C(O)C1O)(CO[C@@H]1OC(CO)[C@@H](O)C(O)C1O)Cc1cc(CC(CCCCCCCCCCCCC)(CO[C@@H]2OC(CO)[C@@H](O)C(O)C2O)CO[C@@H]2OC(CO)[C@@H](O)C(O)C2O)cc(CC(CCCCCCCCCCCCC)(CO[C@@H]2OC(CO)[C@@H](O)C(O)C2O)CO[C@@H]2OC(CO)[C@@H](O)C(O)C2O)c1 (some centres unmarked) [MGA-C13]
  β2AR receptor (ligand binding) activity retained: 50-60%

— patent US10640527B2, “Mesitylene-cored amphiphiles and uses thereof” (Industry-University Cooperation Foundation Hanyang …, priority 2016, dated 2020)
